Results deposited as PubChem BioAssay AID504808 (Drosophila RNAi Screening Center, 2011).
The deposit covers about 21,000 reagents; shown is an unselected part of those that have a named target and a result. Of all reagents, 18 (0.084%) got an active call. 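Raw counts without plate normalisation, one of two replicates; the ratio scores behind the calls were not deposited.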 Entries without a mark were called inactive. Reagents against one gene are numbered here. A plus sign joins genes that one reagent is predicted to hit. Not given: the amount of reagent, the time to read-out.

Purpose: 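Chromatin factors that keep E2F targets switched off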 (primary screen)
Cells: Drosophila S2 cells
Knock-down reagent: long dsRNA against Drosophila genes
Read-out: 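Dual luciferase plate measurements; E2F-specific signal taken as firefly over Renilla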
Scale: E2F firefly: higher = more E2F reporter activity; Renilla normaliser: higher = more normaliser reporter signal
Call rule: 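a knock-down counted as active when the firefly/Renilla E2F signal rose above 50%, a threshold chosen arbitrarily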

target gene | reagent no. | E2F firefly, rep 1 | Renilla normaliser, rep 1
Or9a (Odorant receptor 9a) | 1 | 1.28e5 | 5927
CG14995 | 1 | 59631 | 2969
teq (Tequila) | 1 | 89605 | 4215
teq (Tequila) | 2 | 89227 | 3697
teq (Tequila) | 3 | 84043 | 3669
CG34056 | 1 | 1.03e5 | 3927
lncRNA:sphinx (long non-coding RNA:sphinx) | 1 | 1.06e5 | 5885
Caper | 1 | 88655 | 3223
CG15525 | 1 | 1.08e5 | 6136
CG14764 | 1 | 1.34e5 | 5697
CG14764 | 2 | 3150 | 225
CG14764 | 3 | 1.35e5 | 5019
ND-30 (NADH dehydrogenase (ubiquinone) 30 kDa subunit) | 1 | 67191 | 3087
CG4009 | 1 | 1.10e5 | 6376
Hml (Hemolectin) | 1 | 1.25e5 | 6223
CG31674 | 1 | 1.11e5 | 4204
CG10337 | 1 | 97139 | 3868
yellow-d | 1 | 1.06e5 | 4719
t-Grip91 (testis-specific gamma-tubulin ring protein 91) | 1 | 1.30e5 | 6165
tau | 1 | 1.02e5 | 4863
CG15576 | 1 | 38255 | 3514
CG6044 | 1 | 96059 | 3700
Fib (Fibrillarin) | 1 | 95663 | 4641
Nepl5 (Neprilysin-like 5) | 1 | 93870 | 3681
l(1)G0196 (lethal (1) G0196) | 1 | 76976 | 2394
l(1)G0196 (lethal (1) G0196) | 2 | 1.55e5 | 6065
l(1)G0196 (lethal (1) G0196) | 3 | 1.43e5 | 5821
RpS12 (Ribosomal protein S12) | 1 | 56879 | 3500
CG31404 | 1 | 1.50e5 | 6927
CG31777 | 1 | 1.43e5 | 5634
CG3097 | 1 | 71049 | 4428
CG16723 | 1 | 1.03e5 | 5450
MsrA (Methionine sulfoxide reductase A) | 1 | 1.58e5 | 7414
Act5C (Actin 5C) | 1 | 1.08e5 | 5538
Ing5 (Inhibitor of growth family member 5) | 1 | 84986 | 3600
CG11291 | 1 | 1.05e5 | 4312
klu (klumpfuss) | 1 | 1.21e5 | 8193
bi (bifid) | 1 | 1.08e5 | 5636
bdg (bedraggled) | 1 | 61591 | 3232
Tbcb (Tubulin-binding cofactor B) | 1 | 72403 | 3275
CG18477 + CG31780 | 1 | 1.02e5 | 4295
Spn42Dd (Serpin 42Dd) | 1 | 1.31e5 | 4383
CG31219 | 1 | 1.40e5 | 8051
CG11241 | 1 | 68018 | 3281
Karybeta3 (Karyopherin beta 3) | 1 | 89771 | 4060
CG30403 | 1 | 46851 | 4158
Or94a (Odorant receptor 94a) | 1 | 1.18e5 | 5971
CG31391 | 1 | 1.25e5 | 5437
CG9897 + asRNA:CR42742 | 1 | 95813 | 3717
Cep97 (Centrosomal protein 97kDa) | 1 | 86112 | 3989
CG3198 | 1 | 1.10e5 | 4843
Vha16-4 + CG15614 | 1 | 1.55e5 | 5213
betaNACtes4 (Nascent-associated complex beta-subunit-like, testis 4) | 1 | 1.34e5 | 5522
CG1575 | 1 | 7977 | 760
CG6709 + Hez | 1 | 1.22e5 | 6831
CG6709 + Hez | 2 | 1.11e5 | 6325
bin (biniou) | 1 | 81037 | 3191
CG11052 | 1 | 1.21e5 | 6232
Bub1 (Bub1 kinase) | 1 | 1.00e5 | 4036
CG13727 | 1 | 1.70e5 | 8737
SCAR | 1 | 1.36e5 | 5004
CG6763 | 1 | 1.07e5 | 6546
CR31822 (pseudo) | 1 | 1.38e5 | 7111
xmas-1 (retired record) | 1 | 2.33e5 | 7150
Rad17 | 1 | 1.16e5 | 6252
Ance-4 | 1 | 1.35e5 | 4515
pnr (pannier) | 1 | 67726 | 3525
stac (staccato) | 1 | 85526 | 2587
stac (staccato) | 2 | 1.07e5 | 5556
CG8646 | 1 | 94874 | 3969
cype (cyclope) | 1 | 1.45e5 | 5042
CG32988 | 1 | 1.54e5 | 5531
CG33012 | 1 | 1.11e5 | 4207
CG33012 | 2 | 1.12e5 | 4596
rogdi | 1 | 89861 | 3711
Pcyt1 (Phosphocholine cytidylyltransferase 1) | 1 | 68360 | 3587
CG15084 | 1 | 70891 | 3254
CG10650 | 1 | 90060 | 4019
Unc-115b + p24-2 | 1 | 68093 | 3641
CG4914 | 1 | 1.82e5 | 8266
Cp18 (Chorion protein 18) | 1 | 96709 | 4208
CG32655 | 1 | 87562 | 2731
Pdk1 (Phosphoinositide-dependent kinase 1) | 1 | 1.10e5 | 4144
CG3494 | 1 | 1.10e5 | 4394

11 entries already listed, sorted by “Renilla normaliser, rep 1”, descending.
target gene | reagent no. | E2F firefly, rep 1 | Renilla normaliser, rep 1
CG13727 | 1 | 1.70e5 | 8737
CG6709 + Hez | 1 | 1.22e5 | 6831
CG6709 + Hez | 2 | 1.11e5 | 6325
CG11052 | 1 | 1.21e5 | 6232
betaNACtes4 (Nascent-associated complex beta-subunit-like, testis 4) | 1 | 1.34e5 | 5522
Vha16-4 + CG15614 | 1 | 1.55e5 | 5213
SCAR | 1 | 1.36e5 | 5004
CG3198 | 1 | 1.10e5 | 4843
Bub1 (Bub1 kinase) | 1 | 1.00e5 | 4036
bin (biniou) | 1 | 81037 | 3191
CG1575 | 1 | 7977 | 760
